Some of the results follow. Most values lie at the level of the controls, where differences are scatter.

Protein sequences, listed by entry. Tags and fused reporters are not part of them. Lines headed by an entry give the natural chain unless they say otherwise; changes in a name come on top.
UniProt Q9UPT5: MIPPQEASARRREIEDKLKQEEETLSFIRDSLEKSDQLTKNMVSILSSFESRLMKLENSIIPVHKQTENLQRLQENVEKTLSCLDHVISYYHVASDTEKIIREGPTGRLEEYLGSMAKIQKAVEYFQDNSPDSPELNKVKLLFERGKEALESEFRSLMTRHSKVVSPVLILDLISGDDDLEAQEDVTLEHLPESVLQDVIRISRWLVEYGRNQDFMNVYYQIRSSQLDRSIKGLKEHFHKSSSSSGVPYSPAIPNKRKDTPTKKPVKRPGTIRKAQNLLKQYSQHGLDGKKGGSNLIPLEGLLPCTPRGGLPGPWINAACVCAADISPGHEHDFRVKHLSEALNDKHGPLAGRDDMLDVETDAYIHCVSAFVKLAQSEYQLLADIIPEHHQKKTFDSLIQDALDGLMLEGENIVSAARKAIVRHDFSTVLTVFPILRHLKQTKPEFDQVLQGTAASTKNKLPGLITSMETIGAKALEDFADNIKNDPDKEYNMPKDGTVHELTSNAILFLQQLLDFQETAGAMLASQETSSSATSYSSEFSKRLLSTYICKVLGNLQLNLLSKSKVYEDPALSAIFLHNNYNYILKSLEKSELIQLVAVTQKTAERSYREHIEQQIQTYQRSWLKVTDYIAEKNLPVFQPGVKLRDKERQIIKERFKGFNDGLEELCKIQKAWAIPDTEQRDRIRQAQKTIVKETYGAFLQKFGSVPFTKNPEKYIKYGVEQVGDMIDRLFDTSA
UniProt Q9ULR3: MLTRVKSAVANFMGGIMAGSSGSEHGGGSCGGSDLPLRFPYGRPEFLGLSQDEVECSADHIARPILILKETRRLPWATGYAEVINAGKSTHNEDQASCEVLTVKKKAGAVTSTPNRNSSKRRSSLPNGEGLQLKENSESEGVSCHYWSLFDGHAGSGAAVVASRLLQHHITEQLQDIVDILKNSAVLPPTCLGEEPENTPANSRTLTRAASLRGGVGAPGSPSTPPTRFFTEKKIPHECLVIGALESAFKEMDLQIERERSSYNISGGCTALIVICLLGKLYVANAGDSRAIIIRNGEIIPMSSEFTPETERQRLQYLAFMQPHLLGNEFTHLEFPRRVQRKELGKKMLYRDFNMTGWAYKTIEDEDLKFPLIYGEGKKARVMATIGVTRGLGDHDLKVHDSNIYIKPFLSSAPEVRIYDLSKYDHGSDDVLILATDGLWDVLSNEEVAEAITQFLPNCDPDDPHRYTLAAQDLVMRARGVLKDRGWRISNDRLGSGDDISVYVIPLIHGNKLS
UniProt Q9Y2E8: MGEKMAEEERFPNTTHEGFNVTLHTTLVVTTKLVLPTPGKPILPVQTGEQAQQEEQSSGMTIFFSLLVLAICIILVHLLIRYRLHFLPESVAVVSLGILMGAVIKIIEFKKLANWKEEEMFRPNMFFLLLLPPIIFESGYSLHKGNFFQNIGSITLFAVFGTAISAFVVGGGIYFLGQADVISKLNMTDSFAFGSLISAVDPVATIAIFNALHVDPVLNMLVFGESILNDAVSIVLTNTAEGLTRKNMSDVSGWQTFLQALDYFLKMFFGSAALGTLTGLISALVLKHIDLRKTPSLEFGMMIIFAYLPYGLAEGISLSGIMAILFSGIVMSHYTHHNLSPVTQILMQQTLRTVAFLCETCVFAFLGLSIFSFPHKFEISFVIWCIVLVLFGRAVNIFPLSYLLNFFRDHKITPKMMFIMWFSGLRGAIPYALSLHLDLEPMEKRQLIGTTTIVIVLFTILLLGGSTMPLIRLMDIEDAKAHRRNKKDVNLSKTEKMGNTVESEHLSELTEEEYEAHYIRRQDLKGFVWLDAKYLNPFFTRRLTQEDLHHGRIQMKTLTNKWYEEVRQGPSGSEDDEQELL
UniProt Q9ULR5: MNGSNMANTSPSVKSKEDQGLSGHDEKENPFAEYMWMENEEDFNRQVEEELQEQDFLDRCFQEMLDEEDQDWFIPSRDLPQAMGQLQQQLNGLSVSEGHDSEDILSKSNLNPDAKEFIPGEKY
UniProt Q9Y2R4: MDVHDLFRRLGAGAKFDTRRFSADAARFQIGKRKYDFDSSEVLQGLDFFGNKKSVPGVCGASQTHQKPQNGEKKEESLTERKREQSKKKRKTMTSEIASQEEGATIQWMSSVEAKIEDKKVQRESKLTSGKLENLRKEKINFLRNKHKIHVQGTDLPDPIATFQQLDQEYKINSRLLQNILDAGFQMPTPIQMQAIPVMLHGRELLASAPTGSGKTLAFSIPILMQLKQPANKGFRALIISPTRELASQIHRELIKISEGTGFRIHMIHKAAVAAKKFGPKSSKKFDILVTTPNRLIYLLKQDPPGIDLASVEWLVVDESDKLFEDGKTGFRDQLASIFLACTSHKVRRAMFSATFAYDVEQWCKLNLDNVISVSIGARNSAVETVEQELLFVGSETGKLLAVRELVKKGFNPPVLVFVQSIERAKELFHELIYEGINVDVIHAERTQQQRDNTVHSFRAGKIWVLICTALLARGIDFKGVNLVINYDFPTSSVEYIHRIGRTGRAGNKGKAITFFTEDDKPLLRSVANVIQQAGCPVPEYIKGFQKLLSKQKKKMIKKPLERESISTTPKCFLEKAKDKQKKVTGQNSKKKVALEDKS
UniProt Q9ULE0, whole entry: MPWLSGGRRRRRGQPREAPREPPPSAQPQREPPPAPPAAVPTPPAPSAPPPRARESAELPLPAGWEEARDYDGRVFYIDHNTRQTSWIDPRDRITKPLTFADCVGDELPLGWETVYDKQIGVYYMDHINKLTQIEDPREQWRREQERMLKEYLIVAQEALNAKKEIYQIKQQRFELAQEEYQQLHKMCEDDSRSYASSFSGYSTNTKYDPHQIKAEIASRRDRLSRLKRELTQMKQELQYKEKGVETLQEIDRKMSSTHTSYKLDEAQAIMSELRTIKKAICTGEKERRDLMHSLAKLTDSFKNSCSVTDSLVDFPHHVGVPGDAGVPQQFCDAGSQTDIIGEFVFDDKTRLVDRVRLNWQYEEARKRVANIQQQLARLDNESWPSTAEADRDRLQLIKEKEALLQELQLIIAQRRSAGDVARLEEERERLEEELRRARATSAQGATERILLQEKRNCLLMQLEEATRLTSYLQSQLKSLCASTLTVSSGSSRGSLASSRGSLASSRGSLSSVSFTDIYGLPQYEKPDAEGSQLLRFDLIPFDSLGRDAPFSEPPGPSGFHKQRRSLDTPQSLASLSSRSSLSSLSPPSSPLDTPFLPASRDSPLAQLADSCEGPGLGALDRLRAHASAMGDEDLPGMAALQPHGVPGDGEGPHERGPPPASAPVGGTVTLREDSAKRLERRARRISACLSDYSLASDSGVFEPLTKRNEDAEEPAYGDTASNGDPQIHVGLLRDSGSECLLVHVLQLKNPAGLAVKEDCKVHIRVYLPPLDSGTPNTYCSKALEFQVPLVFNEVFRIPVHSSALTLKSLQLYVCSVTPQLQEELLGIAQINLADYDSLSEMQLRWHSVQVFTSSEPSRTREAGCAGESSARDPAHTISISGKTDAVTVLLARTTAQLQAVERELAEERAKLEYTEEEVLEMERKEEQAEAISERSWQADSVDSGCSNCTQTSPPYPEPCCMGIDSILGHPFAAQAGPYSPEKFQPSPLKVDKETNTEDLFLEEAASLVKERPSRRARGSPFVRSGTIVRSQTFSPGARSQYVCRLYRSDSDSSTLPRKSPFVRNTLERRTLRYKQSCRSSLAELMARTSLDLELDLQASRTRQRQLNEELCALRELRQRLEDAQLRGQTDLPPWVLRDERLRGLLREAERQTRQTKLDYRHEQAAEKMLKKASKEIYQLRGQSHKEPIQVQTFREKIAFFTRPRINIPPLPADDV
UniProt Q9Y221: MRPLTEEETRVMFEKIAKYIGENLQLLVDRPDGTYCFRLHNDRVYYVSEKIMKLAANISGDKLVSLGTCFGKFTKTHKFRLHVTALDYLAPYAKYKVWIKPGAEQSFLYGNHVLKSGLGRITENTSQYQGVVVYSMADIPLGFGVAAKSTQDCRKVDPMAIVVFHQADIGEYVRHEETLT
UniProt Q9UL33, whole entry: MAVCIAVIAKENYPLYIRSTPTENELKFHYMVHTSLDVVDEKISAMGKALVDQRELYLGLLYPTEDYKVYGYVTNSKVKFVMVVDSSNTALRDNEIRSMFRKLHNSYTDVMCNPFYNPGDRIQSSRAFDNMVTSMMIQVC
UniProt Q9Y375: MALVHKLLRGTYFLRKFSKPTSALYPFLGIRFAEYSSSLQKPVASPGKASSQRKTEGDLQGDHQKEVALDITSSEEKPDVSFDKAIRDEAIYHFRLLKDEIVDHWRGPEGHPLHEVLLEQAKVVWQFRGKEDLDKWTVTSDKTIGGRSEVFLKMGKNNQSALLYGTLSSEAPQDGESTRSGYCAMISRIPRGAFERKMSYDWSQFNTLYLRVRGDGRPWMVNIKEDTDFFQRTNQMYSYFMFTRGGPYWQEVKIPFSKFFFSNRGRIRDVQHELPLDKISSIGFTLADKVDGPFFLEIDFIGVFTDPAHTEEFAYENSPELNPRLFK
UniProt Q9UQ05: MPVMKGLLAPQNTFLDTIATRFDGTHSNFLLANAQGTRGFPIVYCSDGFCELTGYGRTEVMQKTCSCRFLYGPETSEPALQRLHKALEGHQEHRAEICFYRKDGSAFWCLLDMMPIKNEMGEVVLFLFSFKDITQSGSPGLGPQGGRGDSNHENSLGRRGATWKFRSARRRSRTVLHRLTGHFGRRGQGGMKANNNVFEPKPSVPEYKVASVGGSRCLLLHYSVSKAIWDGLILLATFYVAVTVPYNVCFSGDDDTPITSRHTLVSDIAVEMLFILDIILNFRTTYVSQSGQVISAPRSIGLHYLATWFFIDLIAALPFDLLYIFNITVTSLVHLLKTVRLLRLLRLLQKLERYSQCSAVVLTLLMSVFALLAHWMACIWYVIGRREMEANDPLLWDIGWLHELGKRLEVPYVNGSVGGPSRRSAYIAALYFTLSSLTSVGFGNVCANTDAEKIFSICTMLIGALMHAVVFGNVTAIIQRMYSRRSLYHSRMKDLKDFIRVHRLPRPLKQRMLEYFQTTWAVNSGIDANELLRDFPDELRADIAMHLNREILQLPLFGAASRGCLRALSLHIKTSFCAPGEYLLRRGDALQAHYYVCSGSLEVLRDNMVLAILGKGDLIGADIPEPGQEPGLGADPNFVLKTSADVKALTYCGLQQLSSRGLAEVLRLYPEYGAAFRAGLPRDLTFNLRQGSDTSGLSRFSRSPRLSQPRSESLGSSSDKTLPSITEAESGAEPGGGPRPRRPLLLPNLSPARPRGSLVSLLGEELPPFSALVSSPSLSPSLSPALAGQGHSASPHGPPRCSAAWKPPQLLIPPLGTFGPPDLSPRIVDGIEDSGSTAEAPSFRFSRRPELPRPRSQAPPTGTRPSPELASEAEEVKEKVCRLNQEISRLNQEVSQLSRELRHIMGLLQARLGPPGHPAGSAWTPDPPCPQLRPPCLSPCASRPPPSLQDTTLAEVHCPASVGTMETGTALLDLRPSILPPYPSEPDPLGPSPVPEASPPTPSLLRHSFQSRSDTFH
UniProt Q9UQL6: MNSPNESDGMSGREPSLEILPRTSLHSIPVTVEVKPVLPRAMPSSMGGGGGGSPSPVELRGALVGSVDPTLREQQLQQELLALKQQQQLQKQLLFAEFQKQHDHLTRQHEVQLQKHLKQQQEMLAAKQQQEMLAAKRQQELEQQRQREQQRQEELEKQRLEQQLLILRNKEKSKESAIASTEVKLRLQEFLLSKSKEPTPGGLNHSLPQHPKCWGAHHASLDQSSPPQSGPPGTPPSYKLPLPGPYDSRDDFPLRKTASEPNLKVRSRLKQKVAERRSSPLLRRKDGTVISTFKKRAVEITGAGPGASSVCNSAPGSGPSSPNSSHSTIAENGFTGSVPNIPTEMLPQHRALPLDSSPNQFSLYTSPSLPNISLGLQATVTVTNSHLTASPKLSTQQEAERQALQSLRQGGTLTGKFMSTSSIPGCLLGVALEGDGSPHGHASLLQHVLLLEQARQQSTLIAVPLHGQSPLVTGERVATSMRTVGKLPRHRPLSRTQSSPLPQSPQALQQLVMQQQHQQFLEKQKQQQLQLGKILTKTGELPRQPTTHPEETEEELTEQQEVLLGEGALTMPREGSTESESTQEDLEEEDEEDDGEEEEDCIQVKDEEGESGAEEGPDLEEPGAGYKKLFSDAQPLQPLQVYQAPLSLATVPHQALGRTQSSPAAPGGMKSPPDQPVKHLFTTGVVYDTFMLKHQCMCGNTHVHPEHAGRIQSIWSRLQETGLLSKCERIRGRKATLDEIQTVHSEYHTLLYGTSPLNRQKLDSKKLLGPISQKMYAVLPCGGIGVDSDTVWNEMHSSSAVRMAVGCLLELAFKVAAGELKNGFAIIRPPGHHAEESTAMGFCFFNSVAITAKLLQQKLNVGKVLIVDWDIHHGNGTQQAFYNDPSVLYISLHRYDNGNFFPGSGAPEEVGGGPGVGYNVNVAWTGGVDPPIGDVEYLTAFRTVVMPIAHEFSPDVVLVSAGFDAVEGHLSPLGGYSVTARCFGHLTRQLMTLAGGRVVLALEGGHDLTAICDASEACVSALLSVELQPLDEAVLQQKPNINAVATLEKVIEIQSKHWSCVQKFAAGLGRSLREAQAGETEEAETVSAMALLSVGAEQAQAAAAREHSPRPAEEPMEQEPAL

Compound in the assay: CN[C@@H]1C[C@H]2O[C@@](C)([C@@H]1OC)n1c3ccccc3c3c4c(c5c6ccccc6n2c5c31)C(=O)NC4 [staurosporine]
Kind of assay: log2 fold change of tryptic peptide abundance, ligand vs vehicle (limited proteolysis) (log2 ratio); higher = more trypsin-susceptible (destabilized). Particulars: ligand concentration: 20 uM; sample: K562 cleared lysate; digestion: 4 min, 22 C (HT-PELSA RT4min, Orbitrap Astral).
In the case of “EXOC7 (peptide sequence: SYREHIEQQIQTYQR, peptide start residue: 607) (UniProt Q9UPT5)”, the log2 fold change came to 0.306.
With “MRPS17 (peptide sequence: LVLDPYLLK, peptide start residue: 33) (UniProt Q9Y2R5)”, the log2 fold change was 0.137.
As to “PPM1H (peptide sequence: VHDSNIYIKPFLSSAPEVR, peptide start residue: 399) (UniProt Q9ULR3)”, the log2 fold change worked out at 0.424.
As for “TTC7A (peptide sequence: LLSEAFVIK, peptide start residue: 164) (UniProt Q9ULT0)”, the log2 fold change was -0.142.
As to “SLC9A8 (peptide sequence: YLNPFFTR, peptide start residue: 534) (UniProt Q9Y2E8)”, the log2 fold change came out at 0.372.
Turning to “UniProt Q9ULR5 (peptide sequence: SKEDQGLSGHDEK, peptide start residue: 15)”, the log2 fold change was -0.232.
On to “FCF1 (peptide sequence: GTYADDCLVQR, peptide start residue: 138) (UniProt Q9Y324)”, for which the log2 fold change was 0.321.
On to “FZR1 (peptide sequence: GLFTYSLSTK, peptide start residue: 126) (UniProt Q9UM11)”, for which the log2 fold change is -0.161.
Take “ZMYND8 (peptide sequence: ETAPAVQR, peptide start residue: 809) (UniProt Q9ULU4)”: the log2 fold change is -0.164.
The result for “DDX52 (peptide sequence: TGFRDQLASIFLACTSHK, peptide start residue: 329) (UniProt Q9Y2R4)” reads 0.667; that for “UniProt Q9ULE0 (peptide sequence: ERLEEELR, peptide start residue: 305)”, 0.097.
The result for “FBXO9 (peptide sequence: RAMQLVPDIEFK, peptide start residue: 119) (UniProt Q9UK97)” reads -0.242; that for “UniProt Q9Y2Q5 (peptide sequence: ETVGFGMLK, peptide start residue: 97)”, 0.219.
Consider “DERA (peptide sequence: YAAYHDLPMS, peptide start residue: 309) (UniProt Q9Y315)”, for which the log2 fold change is -0.38.
On to “MED23 (peptide sequence: FLPVFDIVIHR, peptide start residue: 963) (UniProt Q9ULK4)”, for which the log2 fold change was -0.489.
In the case of “PYCARD (peptide sequence: DLLLQALR, peptide start residue: 175) (UniProt Q9ULZ3)”, the log2 fold change stood at 0.0491.
As to “ACAD8 (peptide sequence: VAFDFAAR, peptide start residue: 51) (UniProt Q9UKU7)”, the log2 fold change was -0.164.
In the case of “NIP7 (peptide sequence: FRLHVTALDYLAPYAK, peptide start residue: 79) (UniProt Q9Y221)”, the log2 fold change is -1.19.
Regarding “TRAPPC2L (peptide sequence: STPTENELK, peptide start residue: 19) (UniProt Q9UL33)”, the log2 fold change was determined as 0.0173.
For the target “UniProt Q9Y253 (peptide sequence: VPVTSSEAK, peptide start residue: 454)”, the log2 fold change stood at 0.403.
In the case of “NDUFAF1 (peptide sequence: LLKDEIVDHWR, peptide start residue: 96) (UniProt Q9Y375)”, the log2 fold change was 0.308.
For “UniProt Q9UQ05 (peptide sequence: IVDGIEDSGSTAEAPSFR, peptide start residue: 827)”, the log2 fold change was 0.00267.
For the target “C19orf53 (peptide sequence: NLEVGIRK, peptide start residue: 52) (UniProt Q9UNZ5)”, the log2 fold change was found to be 0.412.
Consider “NFU1 (peptide sequence: TMDFPTPAAAFR, peptide start residue: 85) (UniProt Q9UMS0)”, for which the log2 fold change was 0.157.
For the target “HDAC5 (peptide sequence: KLLGPISQK, peptide start residue: 766) (UniProt Q9UQL6)”, the log2 fold change was found to be 0.415.
As to “NCKAP1 (peptide sequence: TSFDKPDQMAALFKR, peptide start residue: 882) (UniProt Q9Y2A7)”, the log2 fold change was 0.327.
